From paper PMC3923060, “HCV Core Residues Critical for Infectivity Are Also Involved in Core-NS5A Complex Formation” (PLoS ONE, 2014) come the findings set out here.

These are yes or no findings as the source states them, for the method shown. Some entries that bind do so weakly or less than the wild type.

Assay [1] addresses GST-Core-BD2-His K51A/R59A (hepatitis C virus genotype 2a, strain JFH1) (UniProt Q99IB8). Nature of the assay: pull-down; 4 µg GST protein (bait) mixed with 10 µg NS5A protein in 100 µl binding buffer (50 mM Tris-HCl pH 7.5, 100 mM NaCl, 5 mM MgCl2, 10% glycerol, 0.5% Igepal CA-630, 1 mM DTT), 3 h at 4°C, then glutathione beads 1 h; Western blot (anti-NS5A, anti-Flag), in Figure 3 quantified by IR fluorescence; both purified. For orientation: A western blot detects proteins with antibodies after separation by electrophoresis.

Assay [2] concerns the target GST-Core-BD2-His K51A/R59A/R62A (hepatitis C virus genotype 2a, strain JFH1) (UniProt Q99IB8). The description is as above.
Assay [3] concerns the target GST-Core-BD2-His K51A/R62A (hepatitis C virus genotype 2a, strain JFH1) (UniProt Q99IB8). The assay is described as above.
For assay [4], the target named is GST-Core-BD2-His R50A/K51A (hepatitis C virus genotype 2a, strain JFH1) (UniProt Q99IB8). The assay is described as above.
Assay [5] concerns the target GST-Core-BD2-His R50A/K51A/R59A (hepatitis C virus genotype 2a, strain JFH1) (UniProt Q99IB8). The assay is described as above.
In assay [6] the target is GST-Core-BD2-His R50A/K51A/R59A/R62A (hepatitis C virus genotype 2a, strain JFH1) (UniProt Q99IB8). The assay is described as above.
The target of assay [7] is GST-Core-BD2-His R50A/K51A/R62A (hepatitis C virus genotype 2a, strain JFH1) (UniProt Q99IB8). Described as above.
Assay [8] deals with GST-Core-BD2-His R50A/R59A (hepatitis C virus genotype 2a, strain JFH1) (UniProt Q99IB8). The description is as above.
The target in assay [9] is GST-Core-BD2-His R50A/R59A/R62A (hepatitis C virus genotype 2a, strain JFH1) (UniProt Q99IB8). Described as above.
Assay [10] addresses GST-Core-BD2-His R50A/R62A (hepatitis C virus genotype 2a, strain JFH1) (UniProt Q99IB8). The description is as above.
The target in assay [11] is GST-Core-BD2-His R59A/R62A (hepatitis C virus genotype 2a, strain JFH1) (UniProt Q99IB8). The assay is described as above.
Assay [12] addresses GST-Core75-170-His (hepatitis C virus genotype 2a, strain JFH1) (UniProt Q99IB8). The assay is described as above.
The target in assay [13] is GST-Core122-170-His (hepatitis C virus genotype 2a, strain JFH1) (UniProt Q99IB8). Nature of the assay: condition: 10 µg NS5A protein with 4 µg GST protein in 100 µl; pull-down; 4 µg GST protein (bait) mixed with 10 µg NS5A protein in 100 µl binding buffer (50 mM Tris-HCl pH 7.5, 100 mM NaCl, 5 mM MgCl2, 10% glycerol, 0.5% Igepal CA-630, 1 mM DTT), 3 h at 4°C, then glutathione beads 1 h; Western blot (anti-NS5A, anti-Flag), in Figure 3 quantified by IR fluorescence; both purified.

In the case of “full-length NS5A-His (from UniProt Q99IB8 1977-2442)”, the binding entry in assay [1], in assay [2], in [3], in assay [4], in [5] and in assay [6] was “binds weakly” throughout. Besides, the binding result in assay [7], in assay [8], in assay [9], in [10], in assay [11] and in assay [12] was “binds weakly” throughout. Besides, in [13], the binding result is “no binding”.
